Assay results from patent US20190085081A1.
These are yes or no findings as the source states them, for the method shown. Some binding calls cover weakened binding; strength is not graded here.

Protein sequences, listed by entry. Tags and fused reporters are not part of them. Lines headed by an entry give the natural chain unless they say otherwise; changes in a name come on top. Residues count along the entry.
UniProt Q86T13: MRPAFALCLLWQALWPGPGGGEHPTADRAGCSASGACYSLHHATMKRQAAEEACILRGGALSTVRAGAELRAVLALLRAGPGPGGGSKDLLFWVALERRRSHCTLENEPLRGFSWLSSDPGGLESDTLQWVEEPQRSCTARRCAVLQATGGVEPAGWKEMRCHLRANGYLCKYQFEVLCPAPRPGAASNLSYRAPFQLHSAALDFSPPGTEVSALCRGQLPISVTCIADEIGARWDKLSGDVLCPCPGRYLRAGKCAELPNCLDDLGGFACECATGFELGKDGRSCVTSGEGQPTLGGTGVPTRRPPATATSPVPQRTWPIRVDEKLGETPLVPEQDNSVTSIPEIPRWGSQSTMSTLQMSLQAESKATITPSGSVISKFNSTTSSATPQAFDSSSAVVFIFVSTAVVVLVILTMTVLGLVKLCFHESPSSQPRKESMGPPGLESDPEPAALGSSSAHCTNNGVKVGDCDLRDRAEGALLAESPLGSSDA
UniProt Q8VCP9, residues 22-386: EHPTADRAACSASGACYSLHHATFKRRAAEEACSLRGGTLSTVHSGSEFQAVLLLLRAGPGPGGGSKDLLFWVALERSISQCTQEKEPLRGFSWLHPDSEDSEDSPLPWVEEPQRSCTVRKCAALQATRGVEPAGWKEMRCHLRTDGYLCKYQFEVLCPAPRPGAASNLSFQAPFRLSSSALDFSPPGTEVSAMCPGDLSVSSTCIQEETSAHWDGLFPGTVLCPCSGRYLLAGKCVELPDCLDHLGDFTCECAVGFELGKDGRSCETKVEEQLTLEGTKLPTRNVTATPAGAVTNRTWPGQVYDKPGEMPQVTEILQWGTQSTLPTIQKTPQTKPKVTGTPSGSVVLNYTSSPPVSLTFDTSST

Assays:
[1] = molecular target: Chimera 6; assay: flow cytometry on HEK293T cells, GFP-positive cells gated
[2] = molecular target: CLEC14A wild type with a C terminal GFP tag (human) (UniProt Q86T13); assay: as above
[3] = molecular target: human CLEC14A-ECD-Fc (human) (UniProt Q86T13); assay: pre-incubation of CLEC14A-ECD-Fc with antibody before MMRN2 pull-down
[4] = molecular target: Chimera 6; assay: flow cytometry, HEK293T Chimera 6 GFP, GFP-positive cells gated (R1); filled histogram is the control (files named IgG)
[5] = molecular target: Chimera 6; assay: flow cytometry
[6] = molecular target: CLEC14A wild type with a C terminal GFP tag (human) (UniProt Q86T13); assay: flow cytometry, HEK293T CLEC14A WT GFP, GFP-positive cells gated (R1); filled histogram is the control (files named IgG)
[7] = molecular target: human CLEC14A-ECD-Fc (human) (UniProt Q86T13); assay: ELISA, hybridoma supernatant on absorbed antigen
[8] = molecular target: murine CLEC14A-Fc (mouse) (UniProt Q8VCP9); assay: ELISA, hybridoma supernatant on absorbed antigen
[9] = molecular target: human CLEC14A, full length (human) (UniProt Q86T13); assay: flow cytometry on HUVECs, FITC-labelled antibody after pre-treatment with BSA, C2 or C4
[10] = molecular target: human CLEC14A, full length (human) (UniProt Q86T13); assay: flow cytometry on HUVECs
[11] = molecular target: human CLEC14A, full length (human) (UniProt Q86T13); assay: flow cytometry on HUVECs with control or clec14a siRNA
[12] = molecular target: HA-CLEC14A (human) (UniProt Q86T13); assay: flow cytometry on HEK293T cells overexpressing HA-CLEC14A
[13] = molecular target: CLEC14A with regions 97-108 of CD141 (human); assay: flow cytometry
[14] = molecular target: CLEC14A with regions 97-108 of CD141 (human); assay: flow cytometry, HEK293T 97-108 Chimera GFP, GFP-positive cells gated (R1); filled histogram is the control

Measured: binding

B1: CRT5 (antibody, IgG1, V domains shown)
VH: AEVQLQQSGAELMKPGASVKISCKATGYTFSSYWIEWVNQRPGHGLEWIGEILPGSGSTNYNEKFKGKATFTADTSSNTAYMQLSSLTSEDSAVYYCARGGDYDEEYYAMDYWGQGTSVTL
VL: QIVLTQSPAIMSASPGEKVTMTCSASSSVSYMYWYQQKPGSSPRLLIYDTSNLASGVPVRFSGSGSGTSYSLTISRMEAEDGATYYCQQWSSYPLTFGAGTKLELKR
binds: [1] | [2] | [3] | [4] | [5] | [6] | [7] | [8]

B2: CRT4 (antibody, IgG1, V domains shown)
VH: QVQLQQSGAELMKPGASVKISCKATGYTFSSYWIEWVNRRPGHGLEWIGEILPGSGSTNYNEKFKGKATFTADTSSNTAYMQLSSLTSEDSAVYYCARGGDYDEEYYLMDYWGQGTTLTVSS
VL: QIVLTQSPAIMSASPGEKVTMTCSASSSVSYMYWYQQKPGSSPRLLIYDTSNLASGVPVRFSGSGSGTSYSLTISRMEAEDAATYYCQQWSSYPLTFGAGTKLEIKR
not listed: [13] | [14]
binds: all other assays above

B3: CRT3 (antibody, IgG1, V domains shown)
VH: EVQLQQSGTVLARPGASVKMSCKASGYTFTSYWMHWVKQRPGQGLEWIGAIYPGNSDTSYNQKFKGKAKLTAVTSTSTAYMELSSLTNEDSAVFYCTHYYGSDYAMDYWGQGTSVTV
VL: QIVLTQSPAIMSASLGERVTMTCTASSSVSSSYLHWYQQKPGSSPKLWIYSTSNLASGVPARFSGSGSGTSYSLTISSMEAEDAATYYCHQYHRSPRTFGGGTKLEIKR
binds: [13] | [14]
